# Measured values published in PubChem BioAssay AID504467 (National Center for Advancing Translational Sciences (NCATS), 2011).
# Hit rate of the full screen: of about 330,000 compounds, about 7,700 (2.3%) were called active. Inconclusive means that the source gave no clear call. Such entries were picked first, then a sample of the others. The call rests on the fitted dose curve; in most records, active means well fitted inhibition curve with a large enough effect; inconclusive means small, poorly fitted or top-dose-only effect, or effect the other way; inactive means flat fitted curve, though single readings scatter. Potencies beside an inconclusive call are fits to weak or partial responses and may not hold up.
# Assay: qHTS screen for small molecules that inhibit ELG1-dependent DNA repair in human embryonic kidney (HEK293T) cells expressing luciferase-tagged ELG1; further: nearly all actives have a fitted effect of over 55% in size
# Conditions: HEK293T ELG1-luciferase reporter, luminescence, 16 h, DNA damage induced by 5-fluorouridine; activity change, negative = inhibition: at 46.1 µM (top of the series)
# Method in brief: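 Reporter activity after DNA damage by 5-fluorouridine is monitored. Compound-treated cells incubate 16 hr at 37 °C, then ONE-Glo is added for 30 min before luminescence reading.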
# On the % scale 0 is the no-effect control and ±100 the full control effect; potency means the concentration at half of the fitted maximal effect.
SMILES,"activity change, negative = inhibition",Potency
O=C(O)CC(NC(=S)NCc1ccccc1)C(=O)O (stereo unspecified),inactive: 0%,
Cc1cc(=O)n2nc(N3CCC(C(=O)NCCc4ccc(Cl)cc4)CC3)sc2n1,inactive: -0.0791%,
CC1CC(C)CN(C(=O)Nc2ccc(Br)cc2)C1 (stereo unspecified),inactive: 3.25%,
COc1ccc(CC(=O)OCC(=O)Nc2c(C)n(C)n(-c3ccccc3)c2=O)cc1OC,,"inconclusive: 7.3 µM [activator, partial curve, poor fit]"
CCC(NC(=O)c1cc(COc2cncc(Cl)c2)on1)c1ccncc1 (stereo unspecified),inactive: -10.8%,
CCc1noc(C)c1C(=O)Nc1nc(-c2cccs2)cs1,,"inconclusive: 29.1 µM [activator, single point]"
CN(C)C(CNc1ncccn1)c1ccccc1 (stereo unspecified),inactive: 0%,
O=[N+]([O-])c1ccc2nc(C3CCCCC3)[nH]c2c1,,"inconclusive: 10 µM [activator, single point]"
CCOc1cc(N2CCOCC2)c(OCC)cc1NC(=O)c1[nH]c(C)c(C(C)=O)c1C,,"inconclusive: 29.1 µM [inhibitor, single point]"
O=C(Nc1ccc(N2CCN(C(=O)c3ccco3)CC2)c(Cl)c1)c1cccnc1,,active: 6.51 µM
COc1ccc(NC(=O)CSc2nccn2Cc2ccco2)cc1,,"inconclusive: 11.6 µM [activator, partial curve]"
CC1CCN(C(=O)c2cc3ccccc3cc2O)CC1,,"inconclusive: 20.6 µM [activator, single point]"
CC(=O)c1cccc(OCc2cc(C(=O)N3CCC(N4CCCCC4)CC3)no2)c1,,"inconclusive: 16.4 µM [activator, partial curve, poor fit]"
Cc1noc(C)c1COc1cccc(C(=O)Nc2ccc(Br)cc2F)c1,,"inconclusive: 25.9 µM [inhibitor, single point]"
O=C(Nc1ccncc1)Nc1cccc(C(F)(F)F)c1,,"inconclusive: 8.2 µM [inhibitor, partial curve]"
Cc1nc(C)c(N)c(=O)[nH]1,inactive: 3.46%,
COc1cccc(C(=O)NC2=NCCS2)c1OC,,"inconclusive: 9.2 µM [activator, partial curve]"
Nc1nc(Nc2ccccc2)nc(N2CCCC2)c1[N+](=O)[O-],,"inconclusive: 14.6 µM [activator, partial curve]"
O=C(NCCc1ccccc1)c1nc2nc(-c3cccs3)cc(C(F)(F)F)n2n1,,"inconclusive: 23.1 µM [inhibitor, single point]"
Cc1cc(C(=O)OCn2nnc3ccccc3c2=O)c(C)n1-c1ccccc1,,"inconclusive: 35.5 µM [inhibitor, single point]"
Cc1cc(C(=O)NCc2cc(F)cc3c2OCOC3)nn1C,inactive: -6.85%,
CCN(CC)S(=O)(=O)c1ccc(N2CCOCC2)c(NS(=O)(=O)c2ccc(C(C)C)cc2)c1,,"inconclusive: 16.4 µM [activator, single point]"
CCOC(=O)c1[nH]c(C)c(C(=O)OCC(=O)N2CC(=O)Nc3ccccc32)c1C,,"inconclusive: 18.4 µM [inhibitor, single point]"
O=C1S/C(=C\c2ccc(N3CCOCC3)o2)C(=O)N1c1ccccc1,,"inconclusive: 6.51 µM [activator, partial curve]"

# By substructure: those above containing a CF3 group.
SMILES,"activity change, negative = inhibition",Potency
O=C(Nc1ccncc1)Nc1cccc(C(F)(F)F)c1,,"inconclusive: 8.2 µM [inhibitor, partial curve]"
O=C(NCCc1ccccc1)c1nc2nc(-c3cccs3)cc(C(F)(F)F)n2n1,,"inconclusive: 23.1 µM [inhibitor, single point]"

# Following part.

SMILES,"activity change, negative = inhibition",Potency
CCOc1ccc(C(=O)CCC(=O)N(CC)CC(=O)NCc2ccc(Cl)cc2)cc1,inactive: 2.17%,
CCCCC[C@@H](O)c1cc2ccccc2c(=O)o1,,"inconclusive: 20.6 µM [activator, partial curve]"
N/C(=N\OC(=O)COc1ccc(Br)cc1)c1cccnc1,,"inconclusive: 29.1 µM [activator, single point]"
FC(F)(F)c1cccc(Oc2cc(C(F)(F)F)nc(-c3ccccn3)n2)c1,inactive: -2.6%,
COc1ccc2c(c1)c1nc3ccccc3nc1n2Cc1ccc(OC)c(OC)c1,,"inconclusive: 29.1 µM [inhibitor, single point]"
COc1ccc(NC(=O)CSc2nnc(-c3ccccc3Cl)n2Cc2ccco2)c(OC)c1,,"inconclusive: 14.6 µM [inhibitor, partial curve, poor fit]"
CC1=CC(C)(C)N(S(=O)(=O)c2ccc(F)cc2)c2ccccc21,inactive: -2.34%,
O=c1[nH]c(C2CCN(S(=O)(=O)c3cccc(Cl)c3)CC2)nc2c1nnn2Cc1ccccc1,,"inconclusive: 23.1 µM [inhibitor, single point]"
CSc1nsc(SCC(=O)Nc2ccc(C(N)=O)cc2)n1,,"inconclusive: 9.2 µM [activator, partial curve]"
CC(=O)N(CCC(Cc1ccccc1)c1ccc2c(c1)OCO2)Cc1ccc(Cl)cc1 (stereo unspecified),,"inconclusive: 13 µM [inhibitor, partial curve, poor fit]"
Nc1nonc1-n1nnc(C(=O)N/N=C/c2ccccc2)c1CSc1ccccc1,inactive: -6.28%,
Brc1ccc(CSc2ncn[nH]2)cc1,inactive: 14%,
CCOC(=O)N1CCC(NC(=O)c2cc(C(=O)Nc3ccc(S(=O)(=O)N4CCOCC4)cc3)ccc2CO)CC1,,"inconclusive: 29.1 µM [activator, single point]"
CC(C)Cn1c(N)c(C(=O)CSc2nnc(-c3ccco3)n2C)c(=O)n(C)c1=O,inactive: 0.759%,
COc1ccc(-c2nnc(-c3cc4ccccc4oc3=O)o2)cc1,,"inconclusive: 18.4 µM [activator, partial curve]"
COc1cccc(OC)c1-c1nn2c(-c3cc(-c4ccccc4)n[nH]3)nnc2s1,,"inconclusive: 5.17 µM [inhibitor, full curve, poor fit]"
Cc1oc2cc3oc(=O)c(CCC(=O)NCCN4CCOCC4)c(C)c3cc2c1C,,"inconclusive: 1.83 µM [activator, partial curve, poor fit]"
Cc1ccc(N/C=C/C(=O)c2ccccc2)cc1Br,,"inconclusive: 12.6 µM [activator, partial curve]"
O=C(CC1SC(N2CCCC2)=NC1=O)Nc1ccc(C(=O)Nc2ncccc2O)cc1 (stereo unspecified),,"inconclusive: 4.61 µM [activator, single point]"
Cc1cc(S(=O)(=O)NCc2ccncc2)c(C)cc1Br,,"inconclusive: 1.46 µM [inhibitor, partial curve]"
O=C(/C=C/Nc1ccc(F)cc1F)c1cccs1,,"inconclusive: 0.231 µM [activator, full curve]"
Cc1onc(-c2ccccc2)c1C(=O)NC(=S)NNC(=O)c1ccc(O)cc1O,,"inconclusive: 2.06 µM [inhibitor, partial curve]"
COc1ccc(C(=O)Nc2ccc3[nH]c(-c4cccc(OC)c4)cc(=O)c3c2)cc1,inactive: 2.47%,
Cc1ccc(-n2c(SCC(=O)N(C)C3CCS(=O)(=O)C3)nc3ccccc3c2=O)c(C)c1 (stereo unspecified),,"inconclusive: 23.1 µM [inhibitor, single point]"

SMILES,"activity change, negative = inhibition",Potency
CC1CN(Cc2ccccc2)c2ccccc2NC1=S (stereo unspecified),inactive: -2.72%,
Cc1ccc2oc(=O)c(/C=C(\O)c3sc(C)nc3C)nc2c1,inactive: -13.1%,
COc1cc(/C=N/Nc2ccccn2)ccc1O,,"inconclusive: 14.6 µM [activator, partial curve]"
Cn1c(=O)c2c(nc(NC3CCCCC3)n2CC(O)COc2ccccc2)n(C)c1=O (stereo unspecified),,"inconclusive: 23.1 µM [inhibitor, partial curve]"
CCc1cc(-c2n[nH]c(CCC(=O)O)c2-c2nc3ccccc3n2C)c(O)cc1O,inactive: 4.02%,
Cc1oc(-c2ccccc2F)nc1CN1CCC(C(=O)NCCC2=CCCCC2)CC1,inactive: -1.25%,
COc1ccc(-c2noc(C3CCCN(C(=O)CCc4ccccc4)C3)n2)cc1 (stereo unspecified),,"inconclusive: 14.6 µM [inhibitor, partial curve, poor fit]"
CCCCN(CC)C(=O)c1ccc(Cl)c(Cl)c1,,"inconclusive: 31.6 µM [activator, single point]"
CN1C(=O)/C(=C/c2ccco2)SC1=Nc1ccc(N2CCOCC2)cc1,,"inconclusive: 18.4 µM [activator, single point]"
Cc1ccc(CC(=O)Nc2nc3c(s2)CCCC3)cc1,,"inconclusive: 18.4 µM [activator, partial curve]"
S=c1[nH]nc(C2CCCCC2)n1/N=C/c1ccncc1,,active: 1.16 µM
O=C(O)c1ccc(COc2ccc3ccccc3c2)o1,,"inconclusive: 2.91 µM [activator, partial curve]"
COc1ccc(NC(=O)C(CC(C)C)NC(=O)C2CCC(C)CC2)cc1 (stereo unspecified),inactive: 16.9%,
CC(C)(C)OC(=O)NCc1ccc(CNC(=O)c2nc[nH]c2C(=O)N2CCc3ccccc3C2)cc1,,"inconclusive: 29.1 µM [inhibitor, single point]"
CC(=O)c1ccc(N2C(=O)CC(N3CCN(S(=O)(=O)c4cc(C)ccc4C)CC3)C2=O)cc1 (stereo unspecified),inactive: 6.04%,
Cc1cccc(C2(c3cccc(C)c3)CC2C(=O)NCC2CCCO2)c1 (stereo unspecified),inactive: 0.71%,
O=C(CN1CCN(c2ccc(O)cc2)CC1)Nc1cc(S(=O)(=O)N2CCCCC2)ccc1Cl,,active: 16.4 µM
CC1(C)CC(CC(=O)NNc2nc(-c3ccccc3)cs2)C(=O)O1 (stereo unspecified),inactive: -5.09%,
CC1=CC[C@@]23CCCN2C(=O)CCC[C@H]3C1,,"inconclusive: 23.1 µM [activator, partial curve, poor fit]"
CCOC(=O)c1ccc(NC(=O)NCCc2ccccc2OC)cc1,,"inconclusive: 29.1 µM [inhibitor, single point]"
O=C(CCc1c[nH]c2ccccc12)N[C@@H](Cc1c[nH]c2ccc(O)cc12)C(=O)O,inactive: 3%,
O=C1CC(Cc2ccc(Br)cc2)C(=O)N1c1ccccc1 (stereo unspecified),inactive: 3.44%,
Cn1nc(C(=O)N2CCN(C(c3ccccc3)c3ccccc3)CC2)c2ccccc2c1=O,,"inconclusive: 29.1 µM [inhibitor, single point]"

# Filtered by structure: the entries above with a thiophene ring, fused or not
SMILES,"activity change, negative = inhibition",Potency
CCc1noc(C)c1C(=O)Nc1nc(-c2cccs2)cs1,,"inconclusive: 29.1 µM [activator, single point]"
O=C(NCCc1ccccc1)c1nc2nc(-c3cccs3)cc(C(F)(F)F)n2n1,,"inconclusive: 23.1 µM [inhibitor, single point]"
O=C(/C=C/Nc1ccc(F)cc1F)c1cccs1,,"inconclusive: 0.231 µM [activator, full curve]"
